In publication PMC9735595 (International Journal of Molecular Sciences, 2022):
HELM strings list residues between dots; [ac] is acetyl, [am] amide, other brackets name non-standard units.

Experiment: general procedure: Fmoc solid-phase peptide synthesis
Settings: whole synthesis, scale of the general procedure 0.10 mmol
[1] = RP-C18 HPLC, UV detection at 214 nm

| Substance | final HPLC purity (214 nm) [%] | final HPLC purity [1] [%] |
| --- | --- | --- |
| PEPTIDE1{I.V.R.W.S.K.K.V.P.C.V.S}$$$$V2.0 | 96.6 | 96.5 |
| PEPTIDE1{I.L.R.W.S.R.K.L.P.C.V.S}$$$$V2.0 | – | 95.2 |
